# Measured values from publication PMC7450086.
# Chains of the proteins cited; added tags and fusions are not shown. Lines headed by an entry give the natural chain unless they say otherwise; changes in a name come on top. A line that says so, or that is headed by a name, gives the form on record, which may keep a tag or linker.
# UniProt Q9VIQ8: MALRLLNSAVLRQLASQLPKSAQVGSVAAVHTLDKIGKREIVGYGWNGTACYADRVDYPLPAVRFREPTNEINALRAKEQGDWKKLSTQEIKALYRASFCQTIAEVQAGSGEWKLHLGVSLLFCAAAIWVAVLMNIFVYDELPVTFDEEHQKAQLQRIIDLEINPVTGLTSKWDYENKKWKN
# Serine-arginine protein 55 (P26686, form named): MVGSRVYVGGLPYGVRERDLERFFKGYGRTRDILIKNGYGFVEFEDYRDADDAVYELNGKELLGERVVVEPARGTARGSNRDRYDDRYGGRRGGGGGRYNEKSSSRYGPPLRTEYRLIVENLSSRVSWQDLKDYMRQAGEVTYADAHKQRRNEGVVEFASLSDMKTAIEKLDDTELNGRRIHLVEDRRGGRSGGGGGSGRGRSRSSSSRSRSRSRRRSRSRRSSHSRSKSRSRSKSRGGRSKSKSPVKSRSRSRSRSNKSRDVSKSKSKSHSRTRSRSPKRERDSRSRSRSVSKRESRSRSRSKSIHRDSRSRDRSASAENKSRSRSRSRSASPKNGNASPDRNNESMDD
# UniProt Q24117: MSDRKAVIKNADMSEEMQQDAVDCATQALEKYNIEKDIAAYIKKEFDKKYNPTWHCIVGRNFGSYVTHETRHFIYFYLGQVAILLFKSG
# Biological target: T1, EGFP-Spn-F (Spindle-F) (Drosophila) (UniProt Q9V9Y9)
# T1 sequence: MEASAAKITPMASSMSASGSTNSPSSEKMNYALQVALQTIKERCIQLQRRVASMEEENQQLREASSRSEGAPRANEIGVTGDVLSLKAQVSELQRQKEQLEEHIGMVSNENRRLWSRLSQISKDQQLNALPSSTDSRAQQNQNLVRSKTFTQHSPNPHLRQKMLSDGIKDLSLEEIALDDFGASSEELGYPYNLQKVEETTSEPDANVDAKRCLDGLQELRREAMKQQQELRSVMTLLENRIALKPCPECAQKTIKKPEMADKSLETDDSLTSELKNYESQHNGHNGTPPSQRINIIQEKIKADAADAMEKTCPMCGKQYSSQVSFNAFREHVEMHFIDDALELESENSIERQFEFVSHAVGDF
# Experiment: affinity purification with mass spectrometry; GFP-Spn-F (Actin-Gal4 driven) precipitated from adult fly head lysates with GFP magnetic beads (Chromoteck) overnight at 4 °C; lysis buffer 50 mM Tris-HCl pH 7.5, 150 mM NaCl, 1% NP-40, 0.5% sodium deoxycholate; washes 10 mM Tris-HCl pH 8.0, 150 mM NaCl, 0.1% NP-40; GFP-only flies as control; LC-MS/MS
row,binding,Substance
1,binds,Cytochrome c oxidase subunit 4 (from UniProt Q9VIQ8)
2,binds,Serine-arginine protein 55 (from UniProt P26686 1-350)
3,binds,"dynein light chain 1 (Dlc1), Cut up (from UniProt Q24117 1-89)"

# No constants are given. Whether binding was seen depends on the method and setting. In cells and extracts the contact can be indirect. A yes stands for co-enrichment or nearness to the bait. Other partners may have been found. Where a sequence is shown, tags or fusion partners need not be part of it.
